No constants are given. Whether binding was seen depends on the method and setting. Sequences can lack the tags named with a protein.
Legend:
[1] = molecular target: p8^fnf (TCV p8 with the C-terminal FNF triplet mutated to alanine), Gal4-BD fusion (Turnip crinkle virus); assay: two-hybrid; GAL4 […] system, yeast AH109; DGBp1s and their fnf mutants as Gal4-BD fusions against full-length Arabidopsis ORFs as Gal4-AD fusions; controls pBD-p53 and pAC-ILR3; growth on SD + DO-A-H-L-W + X-alpha Gal
[2] = molecular target: p7^fnf (CarMV p7 with the C-terminal FNF triplet mutated to alanine), Gal4-BD fusion (Carnation mottle virus); assay: as above

B1: 60 S acidic ribosomal protein P3 (RPP3A), Gal4-AD fusion (protein, UniProt Q9SVZ6 1-119)
chain: MGVFTFVCKNGGGAWSAKQHEGELESSASSTYELQRKLVQVSLSADSSGGVQSSFSLVSPTSAVFQVIVGGGGGGGFSAGGAASSGGGAGEAAAAPKEDEKKKEESEEEEGDFGFDLFG
binding [1]: no binding
binding [2]: no binding
